According to patent EP4724480A2:
No constants are given. Whether binding was seen depends on the method and setting. Some results given as binding are weak or reduced against the parent protein; the word gives no strength.

Molecular target: T1, Recombinant human HMGB1 (rHMGB1) (human), P09429
T1 chain: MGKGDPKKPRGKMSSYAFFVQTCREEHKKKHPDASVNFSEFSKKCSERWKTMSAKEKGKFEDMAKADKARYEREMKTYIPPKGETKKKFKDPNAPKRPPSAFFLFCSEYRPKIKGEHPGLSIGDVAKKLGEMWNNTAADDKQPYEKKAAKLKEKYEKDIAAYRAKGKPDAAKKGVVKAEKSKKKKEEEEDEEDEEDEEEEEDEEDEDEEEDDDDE
Assay: Sulfo-SBED label transfer, immunoblot
Conditions: remark: other sources report otherwise

B1: Recombinant human HMGB1 (rHMGB1), P09429 1-215 (ligand)
chain: MGKGDPKKPRGKMSSYAFFVQTCREEHKKKHPDASVNFSEFSKKCSERWKTMSAKEKGKFEDMAKADKARYEREMKTYIPPKGETKKKFKDPNAPKRPPSAFFLFCSEYRPKIKGEHPGLSIGDVAKKLGEMWNNTAADDKQPYEKKAAKLKEKYEKDIAAYRAKGKPDAAKKGVVKAEKSKKKKEEEEDEEDEEDEEEEEDEEDEDEEEDDDDE
binding: binds
